No constants are given. Whether binding was seen depends on the method and setting. Some entries that bind do so weakly or less than the wild type. Where a sequence is shown, tags or fusion partners need not be part of it.
Columns and labels:
hTregL1-his (human) [1] = target: T1, hTregL1-his (human) (UniProt Q96JA1); test: epitope mapping by CL-MS, XL-MS and affinity-MS
T1 sequence (chain, N-glycosylation at N116 and N650 (as printed)): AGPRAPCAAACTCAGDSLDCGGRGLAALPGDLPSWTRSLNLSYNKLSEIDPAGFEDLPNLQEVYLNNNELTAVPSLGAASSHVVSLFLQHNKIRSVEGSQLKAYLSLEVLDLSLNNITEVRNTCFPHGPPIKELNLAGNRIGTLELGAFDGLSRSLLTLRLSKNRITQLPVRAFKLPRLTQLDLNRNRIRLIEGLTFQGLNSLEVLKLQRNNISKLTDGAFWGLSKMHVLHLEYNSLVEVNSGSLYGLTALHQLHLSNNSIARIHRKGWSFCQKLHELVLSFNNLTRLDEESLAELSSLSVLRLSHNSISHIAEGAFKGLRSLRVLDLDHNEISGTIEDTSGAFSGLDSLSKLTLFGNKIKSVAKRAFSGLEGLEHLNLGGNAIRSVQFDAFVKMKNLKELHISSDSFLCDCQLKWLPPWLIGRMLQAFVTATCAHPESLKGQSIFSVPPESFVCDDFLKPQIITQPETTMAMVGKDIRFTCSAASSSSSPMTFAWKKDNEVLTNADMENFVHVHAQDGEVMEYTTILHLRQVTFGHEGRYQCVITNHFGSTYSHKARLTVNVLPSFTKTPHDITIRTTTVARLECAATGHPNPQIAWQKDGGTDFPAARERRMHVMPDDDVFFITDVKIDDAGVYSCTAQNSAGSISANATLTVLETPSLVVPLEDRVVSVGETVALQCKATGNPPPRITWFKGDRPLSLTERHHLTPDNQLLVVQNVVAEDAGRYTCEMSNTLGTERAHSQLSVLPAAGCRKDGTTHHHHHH

hTregL1-his (human) [2] = target: T1, hTregL1-his (human); test: antigen on antibody-coupled CNBr Sepharose column

B1: GTC310-01-hlgG1 (antibody, human IgG1, kappa, V domains shown)
VH: EVQLLESGGGLVQPGGSLRLSCAASGFTFSNYAMSWVRQAPGKGLEWVSVISHGGGSTYYADSVKGRFTISRDNSKNTLYLQMNSLRAEDTAVYYCARVISNCHLGVCYYSNGMDVWGQGTLVTVSS
VL: QLVLTQPPSVSAAPGQRVSISCSGSSSNIGDNYVSWYQQVPGSAPKLLIYDNNKRPSGIPDRFSASKSGTSATLGITGLQTGDEADYYCATWDGSLSAGRVFGGGTKLTVLR
binding (hTregL1-his (human) [1]): binds | binding (hTregL1-his (human) [2]): binds

— patent EP4678655A1
